Earlier results, collected in patent US20240011976A1, “ADDITIVES FOR REDUCING NON-SPECIFIC INTERACTIONS BETWEEN FLUORESCENT POLYMER CONJUGATES AND CELLS IN A BIOLOGICAL SAMPLE” (Beckman Coulter, Inc., priority 2008, published 2024).
For at least one compound, name, drawing or mass did not settle the structure.

Conditions: cited from earlier work

SMILES | CMC [µM]
CCCCCCCCCCCCCCCC[N+](C)(C)CCCS(=O)(=O)[O-] [ZWITTERGENT® 3-16, n-hexadecyl-N,N-dimethyl-3-ammonio-1-propanesulfonate] | 10 to 60
CCCCCCCCCCCCCC[N+](C)(C)CCCS(=O)(=O)[O-] [ZWITTERGENT® 3-14, n-tetradecyl-N,N-dimethyl-3-ammonio-1-propanesulfonate] | 100 to 400
